This note sets out measurements from the supplement of paper PMC7024190.

This is one part of the list. This data set is noisy: repeats of one test often differ as much as different tests do.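 A first-round screen of about ten thousand compounds sought those raising reporter output, using human embryonic kidney cells briefly transfected with a plasmid carrying a Renilla luciferase gene driven by the HSV-TK promoter.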

This experiment deals with HEK 293FT. The experiment is described as follows: log relative Renilla luciferase luminescence (reporter expression vs reference, reference not stated) (log (base not stated)); higher = higher recombinant reporter expression. As to conditions: 10 µM; time after transfection 48 h. The method, then:
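HEK 293FT cells transiently transfected with pRL-TK (Renilla luciferase) were treated with compounds at 10 uM and luminescence was read about 42 h later. Values are log relative Renilla luminescence (log base and reference not stated). Single-pass screen; 2080 natural products library.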
For the compound `COc1ccc([C@@H]2CC(=O)c3c(O)cc(OC)cc3O2)cc1` [4',7-Di-O-methylnaringenin], the log came to 0.0106.
`O=c1c2ccccc2nc2n1CC[C@@H]2O` [Vasicinone]: the log was -0.131.
For `O=C1C[C@@H](O)[C@]2(O)CCO[C@@H]2C1` [Cleroindicin D], the log is -0.083.
The same measure for `COC(/C=C/c1ccccc1)=C1C(=O)C(OC)=C(OC)C1=O` [Methyllinderone]: -0.181.
`C=C(C(=O)O)[C@@H]1CC[C@@]2(C)CCCC(=C)[C@@H]2C1` [beta-Costic acid]: the log was -0.212.
The same measure for `C=C(C(=O)O)[C@@H]1CC[C@@]2(C)CCCC(C)=C2C1` [Isocostic acid]: -0.0495.
Next, `C=C(C)C(O)COc1c2occc2c(OC)c2ccc(=O)oc12` (stereo not given) [Neobyakangelicol]: 0.0251; `C=C(C)C(O)COc1c2occc2cc2ccc(=O)oc12` (stereo not given) [Isogosferol]: -0.583.
The same measure for `CC(=O)Oc1cc(OC(C)=O)cc(C2CC(=O)c3c(OC(C)=O)cc(OC(C)=O)cc3O2)c1` (stereo not given) [3',5,5',7-Tetraacetoxyflavanone]: -0.262; for `CC(C)=CCc1c(O)cc(O)c2c(=O)c3cccc(O)c3oc12` [1,3,5-Trihydroxy-4-prenylxanthone]: -0.0849; for `COC(=O)C1=CO[C@@H](C)[C@@H]2CN3CCc4c([nH]c5ccccc45)[C@@H]3C[C@H]12` [Tetrahydroalstonine]: 0.0719.
With `CC(=O)CC[C@@H]1[C@@]2(C)CO[C@]1(C)C[C@@H](O[C@@H]1O[C@H](CO)[C@@H](O)[C@H](O)[C@H]1O)C2` [Ascleposide E], the log is -0.635.
Next, `COc1c(O)cc2oc(-c3ccc(O)cc3)cc(=O)c2c1O` [Hispidulin]: 0.012; `C[N+](C)(C)C(Cc1ccccc1)C(=O)[O-]` (stereo not given) [Phenylalanine betaine]: 0.146.
The same measure for `CC1=CCC[C@H]2[C@@]1(C)[C@@H](OC(=O)c1cccnc1)[C@H](OC(=O)c1ccccc1)[C@](C)(O)[C@]2(C)/C=C/C1=CC(=O)OC1` [Scutebarbatine B]: 0.0647; for `C=C(CC[C@@H](C)[C@H]1CC[C@@]2(C)[C@@H]3CC[C@H]4[C@](C)(C(=O)O)[C@@H](O)CC[C@@]45C[C@@]35CC[C@]12C)C(C)C` [1-Dehydroxy-23-deoxojessic acid]: -0.0329.
Regarding `C=C(C)[C@@H]1CC[C@]2(C)[C@H](CC[C@@H]3[C@@H]([C@]4(C)CCC(=O)O4)CC[C@]32C)[C@@]1(C)CCC(=O)O` [Eichlerialactone], the log is -0.2.
On to `CC[C@]12C=CCN3CC[C@@]4(c5ccccc5N(C)[C@H]4[C@@](O)(C(=O)OC)[C@@H]1OC(C)=O)[C@@H]32` [Vindorosine], for which the log was 0.00152.
For the compound `C=C(C)[C@@H]1CC[C@]2(C)[C@H](CC[C@@H]3[C@@H]([C@]4(C)CC[C@H](C(C)(C)O)O4)CC[C@]32C)[C@@]1(C)CCC(=O)O` [Shoreic acid], the log was -0.112.
The same measure for `O=C1CC[C@H](CO)C1` [3-(hydroxymethyl)cyclopentanone]: 0.0251; for `C/C(=C/CC[C@@H](C)[C@H]1CC[C@@]2(C)C3=CC[C@H]4C(C)(C)C(=O)CC[C@]4(C)C3=CC[C@]12C)C(=O)O` [Ganoderic acid S]: 0.0997.
Next, `O=C(OC[C@H]1O[C@@H](O[C@@H]2OC=C[C@H]3[C@H](OC(=O)c4ccc(O)cc4)[C@@H]4O[C@]4(CO)[C@@H]23)[C@H](O)[C@@H](O)[C@@H]1O)c1ccc(O)cc1` [6'-O-p-Hydroxybenzoylcatalposide]: -0.273; `C/C(=C\CC[C@@H](C)[C@H]1CC[C@@]2(C)C3CCC4C(C)(C)C(=O)CC[C@]4(C)C3=CC[C@]12C)C(=O)O` (stereo not given in full) [Coccinic acid]: -0.0197.
The same measure for `Oc1cc(O)cc(/C=C/c2ccccc2)c1` [Pinosylvin]: -0.127; for `O=c1cc(CO)oc2cc3occc3c(O)c12` [Norkhellol]: 0.0294.
`COc1cc(-c2oc3cc(O)c(OC)c(O)c3c(=O)c2OC)ccc1O` [Jaceidin]: the log stood at 0.0567.
Take `COc1ccc(-c2cc(=O)c3c(O)cc(O)c(-c4cc(-c5cc(=O)c6c(O)cc(OC)cc6o5)ccc4O)c3o2)cc1` [Putraflavone]: the log was -0.401.
Consider `CC(=O)O[C@H]1[C@H](OC(C)=O)[C@]2(C)O[C@]3(CC[C@]2(C)[C@H]2[C@H](OC(=O)C(C)C)CC=C(C)[C@]12C)COC(=O)C3` [Scutebata E], for which the log was determined as 0.117.
The same measure for `CC(C)C1=C[C@H]2[C@@H]3[C@@H](C(C(C)C)=CC(=O)[C@]3(C)O)[C@@H]1C(=O)[C@]2(C)O` [3,10-Dihydroxy-5,11-dielmenthadiene-4,9-dione]: 0.116.
Next, `CC1(O)CC(CC2(C)OC2COc2ccc3ccc(=O)oc3c2)OC1=O` (stereo not given) [Excavatin M]: -0.259; `O=C(OC1C=C(CO)C2C(OC3OC(CO)C(O)C(O)C3O)OC=CC12)c1ccc(O)cc1` (stereo not given) [6-O-p-Hydroxybenzoylaucubin]: -0.0114.
On to `O=C(O)/C=C/c1ccc(O)cc1` [trans-4-Hydroxycinnamic acid], for which the log stood at 0.107.
Next, `Oc1ccc([C@H]2Oc3cc(O)cc(O)c3C[C@H]2O)cc1` [(-)-Epiafzelechin]: 0.138; `Oc1ccc([C@H]2Oc3cc(O[C@@H]4OC[C@@H](O)[C@H](O)[C@H]4O)cc(O)c3C[C@@H]2O)cc1O` [Catechin 7-xyloside]: -0.43.
As for `O=c1c2cccc(O)c2nc2n1CCc1c-2[nH]c2ccccc12` [1-Hydroxyrutaecarpine], the log worked out at 0.00461.
`CC(C)[C@H]1CC[C@@H]2[C@]1(C)CC[C@]1(C)C3=CC[C@H]4C(C)(C)C(=O)[C@]3(CC[C@@]21C)[C@@]4(C)CC(=O)O` [Alstonic acid B]: the log is -0.0248.
For the compound `OC[C@@H](O)C(O)[C@H](O)CO` [D-arabinitol], the log worked out at 0.0541.
Next, `COc1cc(/C=C/C(=O)O[C@H]2CC[C@@]3(C)C(CC[C@]4(C)C3C=C[C@]35OC(=O)[C@@]6(CCC(C)[C@H](C)C63)CC[C@]54C)C2(C)C)ccc1O` (stereo not given in full) [Tereticornate A]: 0.0366.
The same measure for `C=C1C(OC(C)=O)C(OC(C)=O)C(OC(=O)c2cccnc2)C(C)(C)C=CC(C)C(OC(C)=O)C2(O)CC(C)(OC(C)=O)C(OC(=O)c3ccccc3)C2C1OC(C)=O` (stereo not given) [Pepluanin A]: 0.0541; for `O=C(O)c1ccc(O)cc1` [4-Hydroxybenzoic acid]: 0.0425.
